# Source: the supplement of paper PMC3682954
# Several values for one entry are separate records, joined by “and”; a condition that tells them apart may be missing. Equal values may be shown once. Where a name gives a salt, the structure may show the parent alone. ± gives the standard deviation of the averaged measurements. This is one part of the list. Repeats are few or missing, and single values can be far off.
# System: RAW 264.7
# Assay: cell viability (MTT) relative to vehicle control; higher = more viable cells
# Conditions: stimulus: HMGB1 5 ug/ml, 18 h
# [1] = compound concentration: 1 ug/ml
Compound,cell viability (compound concentration: 3 uM),cell viability [1] [%]
Cc1cc2c(cc1Cl)N(C(=O)Nc1ccc(Oc3cccnc3C)nc1)CC2,104%,
O=C(N[C@@H](Cc1ccccc1)C(=O)CCl)OCc1ccccc1 [Z-L-Phe chloromethyl ketone],56.2%,
Cc1cc2ccc(=O)oc2cc1OC[C@@H](O)C(C)(C)O,,94.3
CCCCOC(=O)NS(=O)(=O)c1sc(CC(C)C)cc1-c1ccc(Cn2c(CC)nc3c(C)cc(C)nc32)cc1,93.8%,
COc1ccc(CCN(C)CCCC(C#N)(c2cc(OC)c(OC)c(OC)c2)C(C)C)cc1OC (racemic) [(±)-Methoxyverapamil hydrochloride],103%,
FC(F)(F)c1ccccc1-n1ccnc1 [1-[2-(Trifluoromethyl)phenyl]imidazole],108%,
COc1cccc(-c2oc3ccccc3c(=O)c2O)c1,,78.8
COc1cccc(NC(=O)/C=C/c2ccc(Cl)cc2)c1,127%,
Oc1ccccc1O [Pyrocatechol],104%,
CO/N=C(\C(=O)N[C@@H]1C(=O)N2C(C(=O)O)=C(CSc3nc(=O)c(O)nn3C)CS[C@H]12)c1csc(N)n1,105%,
CO/N=C(\C(=O)N[C@@H]1C(=O)N2C(C(=O)O)=C(CSc3nc(=O)c(O)nn3C)CS[C@H]12)c1csc(N)n1 [Ceftriaxone sodium],111%,
c1ccc2c(c1)CCC[C@H]2Nc1nc2ccccc2[nH]1 [NS8593 hydrochloride],105%,
O=C(Nc1cccc2c(=O)cc(-c3nnn[nH]3)oc12)c1ccc(OCCCCc2ccccc2)cc1 [Pranlukast],110 ± 3.8%,
C[C@]12CCC(=O)C=C1CC[C@@H]1[C@@H]2[C@@H](O)C[C@@]2(C)[C@H]1CC[C@]2(O)C(=O)COC(=O)CCC(=O)O,108%,
C[C@]12CCC(=O)C=C1CC[C@@H]1[C@@H]2[C@@H](O)C[C@@]2(C)[C@H]1CC[C@]2(O)C(=O)COC(=O)CCC(=O)O [hydrocortisone 21-hemisuccinate],,110
CC(C)(C)NC[C@H](O)COc1nsnc1N1CCOCC1 [Timolol maleate salt],88.7%,
CC(C)(C)NC[C@H](O)COc1nsnc1N1CCOCC1 [S(-)-Timolol maleate],112%,
CC(C)(C)NC[C@H](O)COc1nsnc1N1CCOCC1,111%,
CC(C)(C)NC[C@H](O)COc1nsnc1N1CCOCC1 [Timolol (S)],105%,
NCCCC[C@H](N[C@@H](CCc1ccccc1)C(=O)O)C(=O)N1CCC[C@H]1C(=O)O,103%,
NCCCC[C@H](N[C@@H](CCc1ccccc1)C(=O)O)C(=O)N1CCC[C@H]1C(=O)O [Lisinopril],98.4 ± 6.1%,

# A section from the list above:
Compound,cell viability (compound concentration: 3 uM),cell viability [1] [%]
CC(C)(C)NC[C@H](O)COc1nsnc1N1CCOCC1 [Timolol (S)],105%,
NCCCC[C@H](N[C@@H](CCc1ccccc1)C(=O)O)C(=O)N1CCC[C@H]1C(=O)O,103%,
NCCCC[C@H](N[C@@H](CCc1ccccc1)C(=O)O)C(=O)N1CCC[C@H]1C(=O)O [Lisinopril],98.4 ± 6.1%,

# As entered above.
# cell viability [1] [%] with C[C@]12CCC(=O)C=C1CC[C@@H]1[C@@H]2[C@@H](O)C[C@@]2(C)[C@H]1CC[C@]2(O)C(=O)COC(=O)CCC(=O)O [hydrocortisone 21-hemisuccinate] is entered as 110
# cell viability (compound concentration: 3 uM) with NCCCC[C@H](N[C@@H](CCc1ccccc1)C(=O)O)C(=O)N1CCC[C@H]1C(=O)O [Lisinopril] is entered as 98.4 ± 6.1%

# Remaining list, next part.

Compound,cell viability (compound concentration: 3 uM),cell viability [1] [%]
Fc1ccc(C(OCCCc2cnc[nH]2)c2ccc(F)cc2)cc1,92.6%,
CCNC(=O)N1CCN(CCCC(c2ccc(F)cc2)c2ccc(F)cc2)CC1 [Amperozide hydrochloride],103%,
COC1=C(OC)C(=O)C(CCCCCCCCCCO)=C(C)C1=O,92.8 ± 1.7%,
COC1=C(OC)C(=O)C(CCCCCCCCCCO)=C(C)C1=O [Idebenone],114 ± 7.1%,
C=CCN1CCc2cc(O)c(O)cc2C(c2ccccc2)C1 (racemic),113%,
O=C1CCC(c2ccc(-n3ccnc3)cc2)=NN1 [Imazodan],101%,
CCOC(=O)[C@H](CCc1ccccc1)N[C@H]1CCc2ccccc2N(CC(=O)O)C1=O [Benazepril HCl],109%,
CCOC(=O)[C@H](CCc1ccccc1)N[C@H]1CCc2ccccc2N(CC(=O)O)C1=O,89% and 112%,
COc1cc(-c2oc3c(OC)c(O)cc(O)c3c(=O)c2O)ccc1O [Limocitrin],,138
CCOC(=O)OC(C)OC(=O)[C@@H]1N2C(=O)[C@@H](NC(=O)[C@H](N)c3ccccc3)[C@H]2SC1(C)C (some centres not stated),102%,
CCOC(=O)OC(C)OC(=O)[C@@H]1N2C(=O)[C@@H](NC(=O)[C@H](N)c3ccccc3)[C@H]2SC1(C)C (some centres not stated) [Bacampicillin hydrochloride],112%,
NC(CCCP(=O)(O)O)C(=O)O (racemic) [(±)-2-Amino-5-phosphonopentanoic acid],107%,
NCC(O)c1ccc(O)c(O)c1 (racemic) [(±)-Norepinephrine (+)bitartrate],99.7%,
O=C(O[C@H]1CN2CCC1CC2)N1CCc2ccccc2[C@@H]1c1ccccc1,104%,
NC(=O)N/N=C/c1ccc([N+](=O)[O-])o1 [Nitrofural],95%,
NC(=O)N/N=C/c1ccc([N+](=O)[O-])o1,111%,
CN1CCCCC1CCN1c2ccccc2Sc2ccc([S+](C)[O-])cc21 (configuration not stated) [Mesoridazine besylate],84.8%,
CN1CCCCC1CCN1c2ccccc2Sc2ccc([S+](C)[O-])cc21 (configuration not stated) [Mesoridazine],97.9 ± 1.5%,
COc1cc(OC)c(C=C2C(=O)Nc3ccccc32)c(OC)c1,96.9%,
O=C(CNC(=O)c1ccc(Cl)cc1)NO,110%,
CN1CCCC(n2nc(Cc3ccc(Cl)cc3)c3ccccc3c2=O)CC1 (configuration not stated),100% and 95.3%,

Compound,cell viability (compound concentration: 3 uM),cell viability [1] [%]
CN1CCCC(n2nc(Cc3ccc(Cl)cc3)c3ccccc3c2=O)CC1 (configuration not stated) [Azelastine HCl],112%,
CN(C)CCC[C@@]1(c2ccc(F)cc2)OCc2cc(C#N)ccc21,104 ± 4.4%,
CN(C)CCC[C@@]1(c2ccc(F)cc2)OCc2cc(C#N)ccc21 [Escitalopram],102 ± 14%,
CCCC(=O)Nc1ncnc2c1ncn2[C@@H]1O[C@@H]2COP(=O)(O)O[C@H]2[C@H]1OC(=O)CCC [Bucladesine sodium salt],97.2%,
CCCC(=O)Nc1ncnc2c1ncn2[C@@H]1O[C@@H]2COP(=O)(O)O[C@H]2[C@H]1OC(=O)CCC,110%,
CCN1CCN(C(=O)N[C@@H](C(=O)N[C@@H]2C(=O)N3[C@@H]2SC(C)(C)[C@@H]3C(=O)O)c2ccccc2)C(=O)C1=O,111%,
CCN1CCN(C(=O)N[C@@H](C(=O)N[C@@H]2C(=O)N3[C@@H]2SC(C)(C)[C@@H]3C(=O)O)c2ccccc2)C(=O)C1=O [Piperacillin sodium salt],134%,
CCN1CCN(C(=O)N[C@@H](C(=O)N[C@@H]2C(=O)N3[C@@H]2SC(C)(C)[C@@H]3C(=O)O)c2ccccc2)C(=O)C1=O [Piperacillin],80.7%,
CC(=O)Oc1cccc(O)c1,102%,
CO[C@@H]1[C@@H](OC(N)=O)[C@@H](O)[C@H](Oc2ccc3c(O)c(NC(=O)c4ccc(O)c(CC=C(C)C)c4)c(=O)oc3c2C)OC1(C)C [Novobiocin sodium salt],82.3%,90.4
CO[C@@H]1[C@@H](OC(N)=O)[C@@H](O)[C@H](Oc2ccc3c(O)c(NC(=O)c4ccc(O)c(CC=C(C)C)c4)c(=O)oc3c2C)OC1(C)C,103%,
CO[C@@H]1[C@@H](OC(N)=O)[C@@H](O)[C@H](Oc2ccc3c(O)c(NC(=O)c4ccc(O)c(CC=C(C)C)c4)c(=O)oc3c2C)OC1(C)C [Novobiocin],94.9%,
COc1ccc(NS(=O)(=O)c2ccc(N)cc2)nn1 [Sulfamethoxypyridazine],115%,
COc1ccc(NS(=O)(=O)c2ccc(N)cc2)nn1,101%,
Nc1ccc(C(=O)NCC(=O)O)cc1 [Aminohippuric acid],99.9%,
Nc1ccc(C(=O)NCC(=O)O)cc1,104%,
Cn1nnnc1SCC1=C(C(=O)O)N2C(=O)[C@@H](NC(=O)[C@H](O)c3ccccc3)[C@H]2SC1,104%,
Cn1nnnc1SCC1=C(C(=O)O)N2C(=O)[C@@H](NC(=O)[C@H](O)c3ccccc3)[C@H]2SC1 [Cefamandole sodium salt],125%,
Cc1cnc(=O)[nH]c1N [5-Methylcytosine hydrochloride],,95.9
CCC[C@H](N[C@@H](C)C(=O)N1[C@H](C(=O)O)C[C@@H]2CCCC[C@@H]21)C(=O)OCC,102%,
CCC[C@H](N[C@@H](C)C(=O)N1[C@H](C(=O)O)C[C@@H]2CCCC[C@@H]21)C(=O)OCC [Perindopril],93.6%,

Compound,cell viability (compound concentration: 3 uM),cell viability [1] [%]
N=C(N)NCC1COC2(CCCCC2)O1 (configuration not stated) [Guanadrel sulfate],127%,
CC1(C)OC(=O)NC1=O [Dimethadione],112%,
CC1(C)OC(=O)NC1=O,99%,
"NCCCCCCCCCCN [1,10-Diaminodecane]",97.9%,
CN(C)CCc1c[nH]c2ccc(Cn3cncn3)cc12,104 ± 1.2%,
OCCN1CCN(CCCN2c3ccccc3Sc3ccc(Cl)cc32)CC1,97.3%,
OCCN1CCN(CCCN2c3ccccc3Sc3ccc(Cl)cc32)CC1 [Perphenazine],96.5 ± 3.5%,
Nc1ccc(S(=O)(=O)c2ccc(N)cc2)cc1 [Dapsone],97%,
Nc1ccc(S(=O)(=O)c2ccc(N)cc2)cc1,99.4%,
OC[C@H]1O[C@@H](Oc2ccc(O)cc2)[C@H](O)[C@@H](O)[C@@H]1O [Arbutin],94.2%,
C=C1C[C@H]2[C@@H]3C=C(C)C4=CC(=O)CC[C@]4(C)[C@H]3CC[C@]2(C)[C@@]1(OC(C)=O)C(C)=O,121%,
C=C1C[C@H]2[C@@H]3C=C(C)C4=CC(=O)CC[C@]4(C)[C@H]3CC[C@]2(C)[C@@]1(OC(C)=O)C(C)=O [Melengestrol acetate],113%,
C=C1C[C@H]2[C@@H]3C=C(C)C4=CC(=O)CC[C@]4(C)[C@H]3CC[C@]2(C)[C@@]1(OC(C)=O)C(C)=O [Melengestrol Acetate],107%,
N[C@H]1C(O)O[C@H](CO)[C@@H](O)[C@@H]1O (some centres not stated),104%,
"O=c1oc(Cl)c(Cl)c2ccccc12 [3,4-Dichloroisocoumarin]",95.3%,
Cc1ncc(CSSCc2cnc(C)c(O)c2CO)c(CO)c1O,103%,
CC(=O)Oc1cccc2c1C(=O)c1c(OC(C)=O)cc(C(=O)O)cc1C2=O,110%,
CC(=O)Oc1cccc2c1C(=O)c1c(OC(C)=O)cc(C(=O)O)cc1C2=O [Diacerein],93.2%,
